Reference: patent US20190177419A1 (BERGEN TEKNOLOGIOVERFORING, published 2019)
Results are given in words; binding and its absence hold for the method and conditions named. Some entries that bind do so weakly or less than the wild type. For some of these results: Tags and fused reporters may be left off the sequences shown.

Sequences of proteins named here, by UniProt entry; tags and fusion partners are left off. A change or cut given only in a name is not applied to a line headed by its entry. Residues count along the entry.
UniProt P30530, residues 26-451: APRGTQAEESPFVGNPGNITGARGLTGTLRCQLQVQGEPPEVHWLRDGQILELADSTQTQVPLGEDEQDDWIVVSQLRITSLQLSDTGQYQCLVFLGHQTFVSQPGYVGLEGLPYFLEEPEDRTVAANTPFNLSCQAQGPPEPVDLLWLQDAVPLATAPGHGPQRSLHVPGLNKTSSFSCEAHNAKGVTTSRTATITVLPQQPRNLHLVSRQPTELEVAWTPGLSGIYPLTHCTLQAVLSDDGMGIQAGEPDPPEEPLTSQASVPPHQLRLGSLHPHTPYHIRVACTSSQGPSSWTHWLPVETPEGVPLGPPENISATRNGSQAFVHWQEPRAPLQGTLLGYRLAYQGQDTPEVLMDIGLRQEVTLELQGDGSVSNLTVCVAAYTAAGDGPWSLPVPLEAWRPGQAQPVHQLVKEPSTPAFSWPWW

What was measured:
[1] = biological target: T1, recombinant human Tyro3/Dtk-Fc chimera (R&D Systems, Cat. no. 859-DK) (human) (UniProt Q06418); assay: SPR (Biacore 3000), rhTyro3/Dtk-Fc immobilised on a CM5 chip, rmGas6 injected at 10 µg/mL for 3 min, 5 min dissociation [panel rmGas6]
T1 sequence: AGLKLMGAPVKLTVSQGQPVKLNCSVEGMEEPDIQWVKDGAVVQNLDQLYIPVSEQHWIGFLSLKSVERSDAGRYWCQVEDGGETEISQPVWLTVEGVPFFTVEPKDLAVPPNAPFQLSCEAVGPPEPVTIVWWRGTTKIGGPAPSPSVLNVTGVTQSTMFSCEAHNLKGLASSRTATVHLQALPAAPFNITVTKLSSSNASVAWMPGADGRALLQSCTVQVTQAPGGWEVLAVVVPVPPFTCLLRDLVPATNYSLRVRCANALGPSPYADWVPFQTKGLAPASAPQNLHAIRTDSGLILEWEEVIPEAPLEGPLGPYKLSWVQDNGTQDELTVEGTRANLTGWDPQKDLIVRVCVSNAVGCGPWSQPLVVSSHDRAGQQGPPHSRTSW

[2] = biological target: recombinant human Axl-Fc chimera (R&D Systems, Cat. no. 154-AL) (human) (UniProt P30530); assay: SPR (Biacore 3000), rhAxl-Fc immobilised on a CM5 chip, rmGas6 injected at 10 µg/mL for 3 min, 5 min dissociation [panel rmGas6]
[3] = biological target: recombinant human Axl-Fc chimera (R&D Systems, Cat. no. 154-AL) (human) (UniProt P30530); assay: SPR, Biacore 3000, rhAxl-Fc immobilised on CM5, rmGas6 10 µg/mL
[4] = biological target: T1, recombinant human Tyro3/Dtk-Fc chimera (R&D Systems, Cat. no. 859-DK) (human); assay: SPR, Biacore 3000, rhTyro3/Dtk-Fc immobilised on CM5, rmGas6 10 µg/mL

binding [1]: binds
binding [2]: binds
binding [3]: binds
binding [4]: binds
B1: recombinant mouse Gas6 (R&D Systems, Cat. no. 986-GS/CF) (ligand, UniProt Q61592 115-673, looked up)
chain: DQCTPNPCDKKGTHICQDLMGNFFCVCTDGWGGRLCDKDVNECVQKNGGCSQVCHNKPGSFQCACHSGFSLASDGQTCQDIDECTDSDTCGDARCKNLPGSYSCLCDEGYTYSSKEKTCQDVDECQQDRCEQTCVNSPGSYTCHCDGRGGLKLSPDMDTCEDILPCVPFSMAKSVKSLYLGRMFSGTPVIRLRFKRLQPTRLLAEFDFRTFDPEGVLFFAGGRSDSTWIVLGLRAGRLELQLRYNGVGRITSSGPTINHGMWQTISVEELERNLVIKVNKDAVMKIAVAGELFQLERGLYHLNLTVGGIPFKESELVQPINPRLDGCMRSWNWLNGEDSAIQETVKANTKMQCFSVTERGSFFPGNGFATYRLNYTRTSLDVGTETTWEVKVVARIRPATDTGVLLALVGDDDVVPISVALVDYHSTKKLKKQLVVLAVEDVALALMEIKVCDSQEHTVTVSLREGEATLEVDGTKGQSEVSTAQLQERLDTLKTHLQGSVHTYVGGLPEVSVISAPVTAFYRGCMTLEVNGKILDLDTASYKHSDITSHSCPPVEHAT
